This assay deals with Lymphocyte-specific protein tyrosine kinase (Lck), mouse (mouse (endogenous in LSTRA)) (UniProt P06240). Kind of assay: affinity purification with mass spectrometry; LSTRA whole cell lysate in 1 % NP-40 lysis buffer, 500 ug protein immunoprecipitated with 2 ug anti-Lck antibody or control mouse IgG overnight; eight bands specific to the Lck immunoprecipitate cut from a 4-20 % SDS-PAGE gel; LC-ESI-MS/MS.

By UniProt entry, the sequences of proteins in these tests, tags left out. Residues count along the entry.
UniProt P06240: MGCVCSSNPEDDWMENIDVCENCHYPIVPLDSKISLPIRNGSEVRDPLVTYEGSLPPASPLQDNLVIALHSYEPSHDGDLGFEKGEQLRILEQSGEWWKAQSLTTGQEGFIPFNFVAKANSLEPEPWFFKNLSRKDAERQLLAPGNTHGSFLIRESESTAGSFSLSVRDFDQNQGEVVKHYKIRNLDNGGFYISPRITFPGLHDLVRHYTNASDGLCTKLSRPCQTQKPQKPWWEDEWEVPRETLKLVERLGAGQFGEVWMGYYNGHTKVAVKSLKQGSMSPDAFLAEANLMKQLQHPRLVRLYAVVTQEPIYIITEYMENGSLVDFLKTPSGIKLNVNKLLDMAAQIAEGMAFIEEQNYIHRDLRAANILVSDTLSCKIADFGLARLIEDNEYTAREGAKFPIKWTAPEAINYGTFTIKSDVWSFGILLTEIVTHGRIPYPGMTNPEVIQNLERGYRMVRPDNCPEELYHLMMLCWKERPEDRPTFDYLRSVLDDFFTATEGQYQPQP
UniProt Q5NCP0, residues 24-784: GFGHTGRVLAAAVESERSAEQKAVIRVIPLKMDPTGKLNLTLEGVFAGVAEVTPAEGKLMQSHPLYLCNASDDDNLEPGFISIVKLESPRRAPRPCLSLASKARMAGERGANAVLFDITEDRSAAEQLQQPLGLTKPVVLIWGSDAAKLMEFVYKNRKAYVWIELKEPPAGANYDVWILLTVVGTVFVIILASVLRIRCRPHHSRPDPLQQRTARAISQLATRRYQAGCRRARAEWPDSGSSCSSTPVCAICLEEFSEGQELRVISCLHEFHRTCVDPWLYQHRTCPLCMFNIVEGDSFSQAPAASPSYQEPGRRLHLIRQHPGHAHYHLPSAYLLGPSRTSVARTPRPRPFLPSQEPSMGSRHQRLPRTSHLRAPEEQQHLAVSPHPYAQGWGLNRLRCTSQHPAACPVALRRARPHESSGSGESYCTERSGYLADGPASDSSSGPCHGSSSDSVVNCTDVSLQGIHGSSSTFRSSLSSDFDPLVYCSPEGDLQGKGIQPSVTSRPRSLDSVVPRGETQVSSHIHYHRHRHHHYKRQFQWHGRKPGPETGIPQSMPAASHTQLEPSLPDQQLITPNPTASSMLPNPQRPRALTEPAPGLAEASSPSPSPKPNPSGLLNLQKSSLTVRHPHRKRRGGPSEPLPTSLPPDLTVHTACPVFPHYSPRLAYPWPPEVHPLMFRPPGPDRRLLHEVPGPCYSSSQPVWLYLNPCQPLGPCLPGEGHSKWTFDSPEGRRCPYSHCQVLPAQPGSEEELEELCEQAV
UniProt P09405: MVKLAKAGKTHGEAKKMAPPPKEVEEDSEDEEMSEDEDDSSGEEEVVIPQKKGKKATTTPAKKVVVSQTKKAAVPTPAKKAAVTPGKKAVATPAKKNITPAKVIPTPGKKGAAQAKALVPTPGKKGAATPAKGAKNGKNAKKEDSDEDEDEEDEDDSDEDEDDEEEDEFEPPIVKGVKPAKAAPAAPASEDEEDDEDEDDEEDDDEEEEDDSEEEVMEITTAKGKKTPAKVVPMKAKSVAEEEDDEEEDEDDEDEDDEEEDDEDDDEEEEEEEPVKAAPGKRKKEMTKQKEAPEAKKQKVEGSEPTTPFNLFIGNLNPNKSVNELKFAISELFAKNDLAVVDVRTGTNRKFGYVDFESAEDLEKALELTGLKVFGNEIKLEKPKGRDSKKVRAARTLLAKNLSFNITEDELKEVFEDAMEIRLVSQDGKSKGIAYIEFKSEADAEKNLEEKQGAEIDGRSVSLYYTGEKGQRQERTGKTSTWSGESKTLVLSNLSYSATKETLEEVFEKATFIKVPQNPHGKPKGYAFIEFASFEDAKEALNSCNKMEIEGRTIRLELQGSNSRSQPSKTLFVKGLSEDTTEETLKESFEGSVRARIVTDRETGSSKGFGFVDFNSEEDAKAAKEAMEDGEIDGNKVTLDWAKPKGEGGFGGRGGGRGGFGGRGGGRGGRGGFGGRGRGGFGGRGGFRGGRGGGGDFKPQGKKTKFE

These are yes or no findings as the source states them, for the method shown. In cells and extracts the contact can be indirect. A yes stands for co-enrichment or nearness to the bait. Other partners may have been found.

With “E3 Ubiquitin-protein ligase RNF43 (from UniProt Q5NCP0 24-784) (enzyme)”, the binding entry is listed as “binds”.

On to Nucleolin (from UniProt P09405 1-707), for which the binding entry is “binds”.

B1: ADP/ATP translocase 4 (protein, UniProt Q3V132 1-320)
chain: MSNESSKKQSSKKALFDPVSFSKDLLAGGVAAAVSKTAVAPIERVKLLLQVQASSKQISPEARYKGMLDCLVRIPREQGFLSYWRGNLANVIRYFPTQALNFAFKDKYKELFMSGVNKEKQFWRWFLANLASGGAAGATSLCVVYPLDFARTRLGVDIGKGPEQRQFTGLGDCIMKIAKSDGLIGLYQGFGVSVQGIIVYRASYFGAYDTVKGLLPKPKETPFLVSFIIAQIVTTCSGILSYPFDTVRRRMMMQSGESDRQYKGTIDCFLKIYRHEGVPAFFRGAFSNILRGTGGALVLVLYDKIKEFLNIDVGGSSSGD
Regarding B1, the binding entry is listed as “binds”.

B2: CR6-interacting factor 1 (CRIF1), mouse (protein, UniProt Q9CR59 1-222)
chain: MAALAMRSGYLLRLSVALGPRSRSYRAPPPPRRRPGPHSPDPENLLTPRWQLTPRYVAKQFGRHGAISGVPPASLWPTPEQLRELEAEEQEWYPSLATMQESLRLQQQALEARRQAREQRIAECMAKMPQMIENWRKQKRERWEKIQADKERRARLQAEAQERLGYHVDPRSARFQELLQDLDKQQRKRLKEERQRQKKEARIAAMASAEAQDSAVSGEPSS
Take B2: the binding entry was “binds”.

B3: Hermansky-Pudlak syndrome 6 protein homolog (protein, UniProt Q8BLY7 1-805)
chain: MKRAGTLRLLSDLSNFTGAARLRELLAGDPAVLVRCSPDGRHLLLLRPPGSPAPQLLVAVRGPGLPLERAWPEGDPSPLDVFFVPWLARPALILVWESGLAEVWGVGMEPGWKLLQSTELCPDGGARVMAVAATRGRLVWCEERQPGVKDQPEQLSTAFSHRVCFKTLETSGEAGTKLGCTHILLHHCPLFGLIASRKDLFLVPTTNTWSGVAHLLLIWSPSKGKVIVAAPSLGLSHSKSLNPKQGDTWDFRTLLRGLPGFLSPREPLAVHTWAPSSQGLLLLDLKGKVSLVQCHGGTRTVGILQEAPVSLKGSAALGTFHGTLACVLGSTLELLDMSSGRLLEKKVLSTDRVHLLEPPAPGMKNEEELETRGALRLLSALGLFCVCWETPQGLELPSDKDLVFEEACGYYQRRSLRGTQLTPEELRHNSMFRAPQALASILQGHLPPSTLLTTLRAELRDYRSIEQLKAQLVAGDDEEAGWTELAEHEVARLLRTQLTGDQLAQFNTIFQALPTAAWGATLQALQLQPDRSGRLRSQAPPDVWKKVLRAPTAGKEHPNGILPPFELLCQCLGQLEPQWLPPFVKLAQQQGGPGWGAEGPSLPLYRRALAVLGEEGKRPEALELELLLGSGRPKAVLQAVRQLIKKEEWERALEAGLALDASSPLLRSEIFKLLLAEFAQHRRLDAHLPLLCRLCPPEVAPHELLLLLRTHLPDDEGTTPFPEPGAEPPLTVGLVRALLEQTGAQGRPSGPVQSTYEDILWDPGTPPPTPPRGPTASLPASDHPGQEAWVPPGQGLGAADVGVHL
B3: the binding result is “binds”.

B4: ADP/ATP translocase 1 (protein, UniProt P48962 1-298)
chain: MGDQALSFLKDFLAGGIAAAVSKTAVAPIERVKLLLQVQHASKQISAEKQYKGIIDCVVRIPKEQGFLSFWRGNLANVIRYFPTQALNFAFKDKYKQIFLGGVDRHKQFWRYFAGNLASGGAAGATSLCFVYPLDFARTRLAADVGKGSSQREFNGLGDCLTKIFKSDGLKGLYQGFSVSVQGIIIYRAAYFGVYDTAKGMLPDPKNVHIIVSWMIAQSVTAVAGLVSYPFDTVRRRMMMQSGRKGADIMYTGTLDCWRKIAKDEGANAFFKGAWSNVLRGMGGAFVLVLYDEIKKYV
On to B4, for which the binding result is “binds”.

B5: Transcription initiation factor TFIID subunit 12 (protein, UniProt Q8VE65 1-161)
chain: MNQFGPSALINLSSFSSVKPEPASTPPQGSMANSTTVGKIAGTPGTGGRLSPENNQVLTKKKLQDLVREVDPNEQLDEDVEEMLLQIADDFIESVVTAACQLARHRKSSTLEVKDVQLHLERQWNMWIPGFGSEEIRPYKKACTTEAHKQRMALIRKTTKK
B5: the binding result is “binds”.

B6: E3 ubiquitin-protein ligase RNF181 (enzyme, UniProt Q9CY62 1-165)
chain: MASYFDEHDCEPLNPEREARNNMLLELARRVRGAWSWAPGGRSLFNRMDFEDLGLVDWEHHLPPPAAKAVVESLPRTVISSAKADLKCPVCLLEFEAEETVIEMPCHHLFHSNCILPWLSKTNSCPLCRHELPTDDDSYEEHKKDKARRQQQQHRLENLHGAMYT
For the molecule B6, the binding result is “binds”.

B7: GTP-binding protein 2 (protein, UniProt Q3UJK4 1-602)
chain: MDSRVSELFGGCCRPGGGPAMGGNLKARGAGGSSSCGGPKGKKKNGRNRGGKANNPPYLPPEAEDGNIEYKLKLVNPSQYRFEHLVTQMKWRLQEGRGEAVYQIGVEDNGLLVGLAEEEMRASLKTLHRMAEKVGADITVLREREVDYDSDVPRKITEVLVRKVPDNQQFLDLRVAVLGNVDSGKSTLLGVLTQGELDNGRGRARLNLFRHLHEIQSGRTSSISFEILGFNSKGEVVNYSDSRTAEEICESSSKMITFIDLAGHHKYLHTTIFGLTSYCPDCALLLVSANTGIAGTTREHLGLALALKVPFFIVVSKVDLCAKTTVERTVRQLERVLKQPGCHKVPMLVTSEDDAVTAAQQFAQSPNVTPIFTLSSVSGESLDLLKVFLNILPPLTNSKEQEELMQQLTEFQVDEIYTVPEVGTVVGGTLSSGICREGDQLVVGPTDDGCFLELRVCSIQRNRSACRVLRAGQAATLALGDFDRALLRKGMVMVSPEMNPTICSVFEAEIVLLFHATTFRRGFQVTVHVGNVRQTAVVEKIHAKDKLRTGEKAVVRFRFLKHPEYLKVGAKLLFREGVTKGIGHVTDVQAITAGEAQATMGF
B7: the binding entry was “binds”.

B8: ADP/ATP translocase 2 (protein, UniProt P51881 1-298)
chain: MTDAAVSFAKDFLAGGVAAAISKTAVAPIERVKLLLQVQHASKQITADKQYKGIIDCVVRIPKEQGVLSFWRGNLANVIRYFPTQALNFAFKDKYKQIFLGGVDKRTQFWRYFAGNLASGGAAGATSLCFVYPLDFARTRLAADVGKAGAEREFKGLGDCLVKIYKSDGIKGLYQGFNVSVQGIIIYRAAYFGIYDTAKGMLPDPKNTHIFISWMIAQSVTAVAGLTSYPFDTVRRRMMMQSGRKGTDIMYTGTLDCWRKIARDEGSKAFFKGAWSNVLRGMGGAFVLVLYDEIKKYT
Consider B8, for which the binding result was “binds”.

B9: B-cell stimulating factor 3 (protein, UniProt Q9QZM3 28-225)
chain: LNRTGDPGPGPSIQKTYDLTRYLEHQLRSLAGTYLNYLGPPFNEPDFNPPRLGAETLPRATVNLEVWRSLNDRLRLTQNYEAYSHLLCYLRGLNRQAATAELRRSLAHFCTSLQGLLGSIAGVMATLGYPLPQPLPGTEPAWAPGPAHSDFLQKMDDFWLLKELQTWLWRSAKDFNRLKKKMQPPAASVTLHLEAHGF
For B9, the binding entry is given as “binds”.
